Results are given in words; binding and its absence hold for the method and conditions named. For some of these results: Binding seen in cells or lysates may run through a third protein. Some binding calls cover weakened binding; strength is not graded here.
How the values were obtained:
[1] = biological target: Mcl-1 (wild type) (Homo sapiens (Human)) (UniProt Q07820); assay: co-immunoprecipitation
[2] = biological target: HA-tagged p38 (human p38 alpha) (human) (UniProt Q16539); assay: co-immunoprecipitation of overexpressed proteins, HEK293 cells
Bcl-2 (wild type) [3] = biological target: Bcl-2 (wild type) (UniProt P10415); assay: co-immunoprecipitation, FIG. 5E legend
Bcl-2 (wild type) [4] = biological target: Bcl-2 (wild type) (UniProt P10415); assay: co-immunoprecipitation, HeLa cells treated with STS
Bcl-2 (wild type) [5] = biological target: Bcl-2 (wild type) (UniProt P10415); assay: co-immunoprecipitation, FIG. 5B legend
[6] = biological target: Mcl-1 (wild type) (Homo sapiens (Human)) (UniProt Q07820); assay: co-immunoprecipitation, FIG. 5B legend
Bcl-2 (wild type) [7] = biological target: Bcl-2 (wild type) (UniProt P10415); assay: co-immunoprecipitation, FIG. 5C legend
[8] = biological target: Mcl-1 (wild type) (Homo sapiens (Human)) (UniProt Q07820); assay: co-immunoprecipitation, FIG. 5C legend
[9] = biological target: HA-tagged p38 (human p38 alpha) (human) (UniProt Q16539); assay: co-immunoprecipitation, FIG. 13 legend
Bcl-2 (wild type) [10] = biological target: Bcl-2 (wild type) (UniProt P10415); assay: co-immunoprecipitation with endogenous protein, HEK293 cells
[11] = biological target: Mcl-1 (wild type) (Homo sapiens (Human)) (UniProt Q07820); assay: as above
[12] = biological target: Mcl-1 (wild type) (Homo sapiens (Human)) (UniProt Q07820); assay: Flag-Atg12 immunoprecipitates from HEK293 cells incubated with ABT-737, western blot
[13] = biological target: Mcl-1 (wild type) (Homo sapiens (Human)) (UniProt Q07820); assay: co-immunoprecipitation, co-transfected HEK293 cells
Bcl-2 (wild type) [14] = biological target: Bcl-2 (wild type) (UniProt P10415); assay: co-immunoprecipitation on anti-FLAG beads, transiently transfected HEK293 cells, western blot
Bcl-2 (wild type) [15] = biological target: Bcl-2 (wild type) (UniProt P10415); assay: co-immunoprecipitation, co-transfected HEK293 cells
[16] = biological target: Mcl-1 (wild type) (Homo sapiens (Human)) (UniProt Q07820); assay: endogenous co-immunoprecipitation with anti-Atg12 monoclonal antibody
[17] = biological target: Mcl-1 (wild type) (Homo sapiens (Human)) (UniProt Q07820); assay: endogenous co-immunoprecipitation, FIG. 5D legend
Bcl-2 (wild type) [18] = biological target: Bcl-2 (wild type) (UniProt P10415); assay: co-immunoprecipitation, transiently transfected HEK293 cells
Bcl-2 (wild type) [19] = biological target: Bcl-2 (wild type) (UniProt P10415); assay: co-immunoprecipitation, FIG. 7B legend

The chains behind the UniProt entries cited, without tags or fusion partners. Where a name states a change or a piece, a line headed by the entry shows the natural chain unless it says otherwise.
UniProt Q07820: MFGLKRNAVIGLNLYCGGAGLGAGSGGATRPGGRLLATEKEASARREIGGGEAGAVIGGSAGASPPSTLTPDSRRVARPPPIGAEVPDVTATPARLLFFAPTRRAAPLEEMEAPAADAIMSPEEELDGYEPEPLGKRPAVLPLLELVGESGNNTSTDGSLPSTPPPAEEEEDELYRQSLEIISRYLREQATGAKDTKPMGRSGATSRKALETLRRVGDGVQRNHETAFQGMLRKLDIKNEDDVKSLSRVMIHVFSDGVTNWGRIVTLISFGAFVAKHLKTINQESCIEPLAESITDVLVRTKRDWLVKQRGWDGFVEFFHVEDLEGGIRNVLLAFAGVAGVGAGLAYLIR
UniProt Q16539: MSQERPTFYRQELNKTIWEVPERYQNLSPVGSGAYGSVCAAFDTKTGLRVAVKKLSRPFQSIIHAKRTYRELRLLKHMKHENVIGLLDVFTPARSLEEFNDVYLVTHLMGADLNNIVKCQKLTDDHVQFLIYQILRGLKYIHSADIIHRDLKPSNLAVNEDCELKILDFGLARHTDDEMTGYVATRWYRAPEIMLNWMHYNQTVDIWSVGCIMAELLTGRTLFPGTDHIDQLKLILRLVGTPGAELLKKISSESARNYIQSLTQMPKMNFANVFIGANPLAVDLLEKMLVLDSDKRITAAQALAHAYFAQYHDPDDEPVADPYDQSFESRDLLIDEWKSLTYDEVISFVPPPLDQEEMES
UniProt P10415: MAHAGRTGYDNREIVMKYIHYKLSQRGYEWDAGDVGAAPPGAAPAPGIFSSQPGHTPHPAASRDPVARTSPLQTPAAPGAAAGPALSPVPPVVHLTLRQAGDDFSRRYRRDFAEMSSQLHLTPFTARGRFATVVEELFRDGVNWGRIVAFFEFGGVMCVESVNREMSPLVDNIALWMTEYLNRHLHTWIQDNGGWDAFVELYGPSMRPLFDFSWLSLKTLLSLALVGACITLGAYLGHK
UniProt O94817: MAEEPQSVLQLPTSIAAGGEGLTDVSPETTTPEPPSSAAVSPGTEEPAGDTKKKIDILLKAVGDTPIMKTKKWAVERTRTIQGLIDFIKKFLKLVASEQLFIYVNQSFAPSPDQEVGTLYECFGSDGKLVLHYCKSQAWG

Measured: binding

Atg12 T65A (from UniProt O94817 1-140)
binds: [1]

Flag-tagged human Atg12 (wild type) (from UniProt O94817 1-140)
not listed: [1] | Bcl-2 (wild type) [15] | [16] | [17] | Bcl-2 (wild type) [18] | Bcl-2 (wild type) [19]
binds: all other assays above

Flag-tagged Atg12 F101A (from UniProt O94817 1-140)
binds: [1]

Flag-tagged Atg12 D64A (from UniProt O94817 1-140)
binds: Bcl-2 (wild type) [15]

Atg12 (human; untagged, endogenous, or tag not stated) (from UniProt O94817 1-140)
binds: [16] | [17] | Bcl-2 (wild type) [18] | Bcl-2 (wild type) [19]

Atg12ΔG140 (from UniProt O94817 1-139)
binds: Bcl-2 (wild type) [18] | Bcl-2 (wild type) [19]

— patent US20140155330A1, “Compositions And Methods For Modulating Apoptosis” (Yeda Research and Development Co. Ltd., priority 2011, published 2014)
